# From the supplement of paper PMC8728848
# The other results are listed elsewhere or left out.
# B1: MLTim-4 (Mus musculus), Q6U7R4 (protein)
# chain: MSKGLLLLWLVTELWWLYLTPAASEDTIIGFLGQPVTLPCHYLSWSQSRNSMCWGKGSCPNSKCNAELLRTDGTRIISRKSTKYTLLGKVQFGEVSLTISNTNRGDSGVYCCRIEVPGWFNDVKKNVRLELRRAT
# What was measured:
# Assay in all cases: glycan array binding signal (z-score within array); higher = stronger binding
# Conditions in all cases: glycan notation: IUPAC condensed, linker removed
# [1] = target: Gal(b1-4)GlcNAc(b1-6)GalNAc
# Procedure, shortened: (§1)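 Glycan array data were curated from 3228 arrays in the Consortium for Functional Glycomics database and kept only where the protein sequence was available. Glycan names were converted to IUPAC-condensed notation, and columns mapping to the same glycan were averaged. The binding signal is a within-array Z-score, averaged across arrays of the same protein sequence at different concentrations or buffers and across linkers. Negative Z-scores can be read as non-binding.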
# [2] = target: Gal(b1-4)GlcNAc(b1-6)[Gal(b1-3)]GalNAc
# Procedure, shortened: as §1
# [3] = target: Gal(b1-4)GlcNAc(b1-6)[Gal(b1-3)]GlcNAc
# Procedure, shortened: as §1
# Gal3S(b1-3)GalNAc = target: Gal3S(b1-3)GalNAc
# Procedure, shortened: as §1
# Gal3S(b1-3)GlcNAc = target: Gal3S(b1-3)GlcNAc
# Procedure, shortened: as §1
# [4] = target: Gal3S(b1-3)[Fuc(a1-4)]GlcNAc
# Procedure, shortened: as §1
# Gal3S(b1-4)Glc = target: Gal3S(b1-4)Glc
# Procedure, shortened: as §1
# Gal3S(b1-4)Glc6S = target: Gal3S(b1-4)Glc6S
# Procedure, shortened: as §1
# Gal3S(b1-4)GlcNAc = target: Gal3S(b1-4)GlcNAc
# Procedure, shortened: as §1
# Gal3S(b1-4)GlcNAc6S = target: Gal3S(b1-4)GlcNAc6S
# Procedure, shortened: as §1
# Gal3S6S(b1-4)GlcNAc = target: Gal3S6S(b1-4)GlcNAc
# Procedure, shortened: as §1
# Gal3S6S(b1-4)GlcNAc6S = target: Gal3S6S(b1-4)GlcNAc6S
# Procedure, shortened: as §1
# Gal4S(b1-4)GlcNAc = target: Gal4S(b1-4)GlcNAc
# Procedure, shortened: as §1
# Gal4S6S(b1-4)GlcNAc = target: Gal4S6S(b1-4)GlcNAc
# Procedure, shortened: as §1
# Gal6S(b1-4)Glc = target: Gal6S(b1-4)Glc
# Procedure, shortened: as §1
# Gal6S(b1-4)Glc6S = target: Gal6S(b1-4)Glc6S
# Procedure, shortened: as §1
# Gal6S(b1-4)GlcNAc = target: Gal6S(b1-4)GlcNAc
# Procedure, shortened: as §1
# GalNAc(a1-3)Gal = target: GalNAc(a1-3)Gal
# Procedure, shortened: as §1
# GalNAc(a1-3)GalNAc = target: GalNAc(a1-3)GalNAc
# Procedure, shortened: as §1
# [5] = target: GalNAc(b1-3)Gal(a1-4)Gal(b1-4)GlcNAc
# Procedure, shortened: as §1
# GalNAc(b1-4)GlcNAc = target: GalNAc(b1-4)GlcNAc
# Procedure, shortened: as §1
# Glc(a1-4)Glc = target: Glc(a1-4)Glc
# Procedure, shortened: as §1
# Glc(a1-6)Glc(a1-6)Glc = target: Glc(a1-6)Glc(a1-6)Glc
# Procedure, shortened: as §1
# Glc(b1-4)Glc = target: Glc(b1-4)Glc
# Procedure, shortened: as §1
# Glc(b1-6)Glc = target: Glc(b1-6)Glc
# Procedure, shortened: as §1
# GlcA(b1-3)Gal = target: GlcA(b1-3)Gal
# Procedure, shortened: as §1
# GlcA(b1-6)Gal = target: GlcA(b1-6)Gal
# Procedure, shortened: as §1
# [6] = target: GlcNAc(a1-3)Gal(b1-4)GlcNAc
# Procedure, shortened: as §1
# [7] = target: GlcNAc(a1-6)Gal(b1-4)GlcNAc
# Procedure, shortened: as §1
# [8] = target: GlcNAc(b1-2)Gal(b1-3)GlcNAc
# Procedure, shortened: as §1
# [9] = target: GlcNAc(b1-2)Man(a1-3)[GlcNAc(b1-2)Man(a1-6)]Man(b1-4)GlcNAc(b1-4)GlcNAc
# Procedure, shortened: as §1
# GlcNAc(b1-3)Gal = target: GlcNAc(b1-3)Gal
# Procedure, shortened: as §1
# [10] = target: GlcNAc(b1-3)Gal(b1-3)GalNAc
# Procedure, shortened: as §1
# GlcNAc(b1-3)Gal(b1-4)Glc = target: GlcNAc(b1-3)Gal(b1-4)Glc
# Procedure, shortened: as §1
# [11] = target: GlcNAc(b1-3)Gal(b1-4)GlcNAc
# Procedure, shortened: as §1
# [12] = target: GlcNAc(b1-3)Gal(b1-4)GlcNAc(b1-3)Gal(b1-4)GlcNAc
# Procedure, shortened: as §1
# GlcNAc(b1-3)GalNAc = target: GlcNAc(b1-3)GalNAc
# Procedure, shortened: as §1
# [13] = target: GlcNAc(b1-3)[GlcNAc(b1-4)][GlcNAc(b1-6)]GlcNAc
# Procedure, shortened: as §1
# [14] = target: GlcNAc(b1-3)[GlcNAc(b1-6)]Gal(b1-4)GlcNAc
# Procedure, shortened: as §1
# [15] = target: GlcNAc(b1-3)[GlcNAc(b1-6)]GlcNAc
# Procedure, shortened: as §1
# [16] = target: GlcNAc(b1-4)Gal(b1-4)GlcNAc
# Procedure, shortened: as §1
# [17] = target: GlcNAc(b1-4)GlcNAc(b1-4)GlcNAc
# Procedure, shortened: as §1
# [18] = target: GlcNAc(b1-4)GlcNAc(b1-4)GlcNAc(b1-4)GlcNAc(b1-4)GlcNAc
# Procedure, shortened: as §1
# [19] = target: GlcNAc(b1-4)GlcNAc(b1-4)GlcNAc(b1-4)GlcNAc(b1-4)GlcNAc(b1-4)GlcNAc
# Procedure, shortened: as §1
# [20] = target: GlcNAc(b1-4)[GlcNAc(b1-6)]GalNAc
# Procedure, shortened: as §1
binder,measurement,setting,value
B1,glycan array binding signal (z-score),[1],-0.284
same,glycan array binding signal (z-score),[2],0.437
same,glycan array binding signal (z-score),[3],0.243
same,glycan array binding signal (z-score),Gal3S(b1-3)GalNAc,-0.428
same,glycan array binding signal (z-score),Gal3S(b1-3)GlcNAc,-0.334
same,glycan array binding signal (z-score),[4],-0.574
same,glycan array binding signal (z-score),Gal3S(b1-4)Glc,0.501
same,glycan array binding signal (z-score),Gal3S(b1-4)Glc6S,0.308
same,glycan array binding signal (z-score),Gal3S(b1-4)GlcNAc,-0.503
same,glycan array binding signal (z-score),Gal3S(b1-4)GlcNAc6S,-0.435
same,glycan array binding signal (z-score),Gal3S6S(b1-4)GlcNAc,-0.274
same,glycan array binding signal (z-score),Gal3S6S(b1-4)GlcNAc6S,-0.043
same,glycan array binding signal (z-score),Gal4S(b1-4)GlcNAc,-0.604
same,glycan array binding signal (z-score),Gal4S6S(b1-4)GlcNAc,-0.565
same,glycan array binding signal (z-score),Gal6S(b1-4)Glc,0.602
same,glycan array binding signal (z-score),Gal6S(b1-4)Glc6S,-0.372
same,glycan array binding signal (z-score),Gal6S(b1-4)GlcNAc,-0.672
same,glycan array binding signal (z-score),GalNAc(a1-3)Gal,0.196
same,glycan array binding signal (z-score),GalNAc(a1-3)GalNAc,-0.086
same,glycan array binding signal (z-score),[5],-0.688
same,glycan array binding signal (z-score),GalNAc(b1-4)GlcNAc,-0.379
same,glycan array binding signal (z-score),Glc(a1-4)Glc,0.722
same,glycan array binding signal (z-score),Glc(a1-6)Glc(a1-6)Glc,0.744
same,glycan array binding signal (z-score),Glc(b1-4)Glc,1.36
same,glycan array binding signal (z-score),Glc(b1-6)Glc,1.42
same,glycan array binding signal (z-score),GlcA(b1-3)Gal,6.6
same,glycan array binding signal (z-score),GlcA(b1-6)Gal,2.97
same,glycan array binding signal (z-score),[6],-0.886
same,glycan array binding signal (z-score),[7],-0.414
same,glycan array binding signal (z-score),[8],-0.296
same,glycan array binding signal (z-score),[9],0.336
same,glycan array binding signal (z-score),GlcNAc(b1-3)Gal,-0.316
same,glycan array binding signal (z-score),[10],0.068
same,glycan array binding signal (z-score),GlcNAc(b1-3)Gal(b1-4)Glc,-0.475
same,glycan array binding signal (z-score),[11],0.557
same,glycan array binding signal (z-score),[12],-0.917
same,glycan array binding signal (z-score),GlcNAc(b1-3)GalNAc,-0.115
same,glycan array binding signal (z-score),[13],-0.523
same,glycan array binding signal (z-score),[14],-0.473
same,glycan array binding signal (z-score),[15],-0.206
same,glycan array binding signal (z-score),[16],-1.18
same,glycan array binding signal (z-score),[17],-0.436
same,glycan array binding signal (z-score),[18],-0.775
same,glycan array binding signal (z-score),[19],0.68
same,glycan array binding signal (z-score),[20],-0.498

# Pulled one by one from the entries so far, three records:
binder,measurement,setting,value
B1,glycan array binding signal (z-score),Gal3S(b1-4)Glc6S,0.308
same,glycan array binding signal (z-score),[1],-0.284
same,glycan array binding signal (z-score),Gal4S6S(b1-4)GlcNAc,-0.565
